Earlier results, collected in patent publication US20060275816A1, “Methods for identifying drug pharmacology and toxicology” (priority 2005, published 2006).
At least one structure is not confirmed: it was looked up by name or label, or the drawing left a doubt.

Test system: MCF7 cells
Details: cited from earlier work

SMILES	MCF7 cell growth (compound alone)	MCF7 cell proliferation (with Estradiol)
C[C@]12CC[C@@H]3c4ccc(O)cc4CC[C@H]3[C@@H]1CC[C@@H]2O [Estradiol]	causes the cells to grow	–
CN(CCOc1ccc(CC2SC(=O)NC2=O)cc1)c1ccccn1 (centres unmarked) [Rosiglitazone]	–	blocks proliferation
